From patent US20120121603A1 (THERACLONE SCIENCES, published 2012)
These are yes or no findings as the source states them, for the method shown. Some entries that bind do so weakly or less than the wild type.

Chains of the proteins cited; added tags and fusions are not shown.
UniProt P06821: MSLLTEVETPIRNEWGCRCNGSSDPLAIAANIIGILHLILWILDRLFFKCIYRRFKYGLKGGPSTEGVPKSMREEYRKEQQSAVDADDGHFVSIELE

Key:
[1] = biological target: influenza A/Puerto Rico/8/34 (PR8) virus, M2 on virions (Influenza A virus A/Puerto Rico/8/34 (PR8)) (UniProt P06821); assay: binding to influenza virions
[2] = biological target: influenza A/Puerto Rico/8/34 (PR8) virus, M2 on virions (Influenza A virus A/Puerto Rico/8/34 (PR8)) (UniProt P06821); assay: ELISA, crude supernatant on influenza virus
[3] = biological target: influenza A/Puerto Rico/8/34 (PR8) virus, M2 on virions (Influenza A virus A/Puerto Rico/8/34 (PR8)) (UniProt P06821); assay: ELISA, crude supernatant on PR8 virus coated plates

Measured: binding

B1: 21B15 (antibody, V domains shown)
VH: QVQLQESGPGLVKPSETLSLTCTVSGSSISNYYWSWIRQSPGKGLEWIGFIYYGGNTKYNPSLKSRVTISQDTSKSQVSLTMSSVTAAESAVYFCARASCSGGYCILDYWGQGTLVTVS
VL: DIQVTQSPSSLSASVGDRVTITCRASQNIYKYLNWYQQRPGKAPKGLISAASGLQSGVPSRFSGSGSGTDFTLTITSLQPEDFATYYCQQSYSPPLTFGGGTRVDIK
binds: all assays above

B2: 8I10 (antibody, V domains shown)
VH: QVQLQESGPGLVKPSETLSLTCTVSGSSISNYYWSWIRQSPGKGLEWIGFIYYGGNTKYNPSLKSRVTISQDTSKSQVSLTMSSVTAAESAVYFCARASCSGGYCILDYWGQGTLVTVSR
VL: DIQMTQSPSSLSASVGDRVTITCRASQNIYKYLNWYQQRPGKAPKGLISAASGLQSGVPSRFSGSGSGTDFTLTITSLQPEDFATYYCQQSYSPPLTFGGGTRVEIKR
binds: all assays above
